Assay results as given in PMC13064811, “The Role of Disulfide Bonds in the GluN1 Subunit in the Early Trafficking and Functional Properties of GluN1/GluN2 and GluN1/GluN3 NMDA Receptors” (The Journal of Neuroscience, 2026).
These are yes or no findings as the source states them, for the method shown. Binding seen in cells or lysates may run through a third protein. Some results given as binding are weak or reduced against the parent protein; the word gives no strength.

Chains of the proteins cited; added tags and fusions are not shown. Lines headed by an entry give the natural chain unless they say otherwise; changes in a name come on top. Residues count along the entry.
UniProt Q9R1M7, residues 24-1135: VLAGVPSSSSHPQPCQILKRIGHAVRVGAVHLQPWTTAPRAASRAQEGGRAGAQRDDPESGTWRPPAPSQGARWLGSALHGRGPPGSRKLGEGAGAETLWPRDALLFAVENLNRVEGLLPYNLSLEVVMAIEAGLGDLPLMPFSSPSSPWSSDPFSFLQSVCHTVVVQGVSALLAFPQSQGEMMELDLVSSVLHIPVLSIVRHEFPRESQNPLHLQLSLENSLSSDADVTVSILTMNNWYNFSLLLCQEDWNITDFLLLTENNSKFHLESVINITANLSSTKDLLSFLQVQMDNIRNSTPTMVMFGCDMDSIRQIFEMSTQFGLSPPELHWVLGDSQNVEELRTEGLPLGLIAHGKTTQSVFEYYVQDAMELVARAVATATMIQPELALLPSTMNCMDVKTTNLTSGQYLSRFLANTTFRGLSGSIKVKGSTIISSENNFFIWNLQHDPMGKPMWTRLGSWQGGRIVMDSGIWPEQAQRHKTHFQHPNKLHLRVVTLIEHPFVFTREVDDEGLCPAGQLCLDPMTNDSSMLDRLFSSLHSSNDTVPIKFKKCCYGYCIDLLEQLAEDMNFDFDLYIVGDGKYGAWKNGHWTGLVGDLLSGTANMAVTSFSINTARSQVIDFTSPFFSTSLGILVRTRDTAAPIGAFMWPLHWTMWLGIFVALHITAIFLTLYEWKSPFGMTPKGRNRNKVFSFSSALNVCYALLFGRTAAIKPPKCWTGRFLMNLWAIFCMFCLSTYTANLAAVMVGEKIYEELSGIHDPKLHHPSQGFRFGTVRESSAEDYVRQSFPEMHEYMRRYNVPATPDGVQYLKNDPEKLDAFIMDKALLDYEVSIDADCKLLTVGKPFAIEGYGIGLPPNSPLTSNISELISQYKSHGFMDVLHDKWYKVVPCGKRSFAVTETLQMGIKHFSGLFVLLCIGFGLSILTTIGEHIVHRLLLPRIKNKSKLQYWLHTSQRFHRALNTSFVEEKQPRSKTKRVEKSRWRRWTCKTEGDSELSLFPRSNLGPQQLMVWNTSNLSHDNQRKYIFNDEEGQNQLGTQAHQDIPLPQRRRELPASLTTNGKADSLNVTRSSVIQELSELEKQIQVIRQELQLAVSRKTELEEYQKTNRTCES

Columns and labels:
[1] = target: YFP-hGluN1-1a-C744Y subunit (human) (UniProt Q05586); test: co-IP; primary rat hippocampal neurons infected with lentivirus for 48 h; solubilised with 0.5% sodium deoxycholate; immunoprecipitated with anti-GFP antibody and protein A-Sepharose at 4°C; Western blot with anti-GluN2A, anti-GluN2B, anti-GluN3A, anti-GFP
[2] = target: WT YFP-hGluN1-1a subunit (human) (UniProt Q05586); test: as above
[3] = target: endogenous GluN3A subunit (rat (endogenous in primary hippocampal neurons)) (UniProt Q9R1M7); test: co-IP; primary rat hippocampal neurons infected with lentivirus for 48 h; total lysate, 0.5% sodium deoxycholate; immunoprecipitated with anti-GluN3A antibody and protein A-Sepharose at 4°C; Western blot with anti-GluN2A, anti-GluN2B, anti-GFP

| binding [1] | binding [2] | binding [3] | Substance |
| --- | --- | --- | --- |
| binds | binds | – | endogenous GluN3A subunit (from UniProt Q9R1M7-1 24-1135) (receptor) |
| – | – | binds | WT YFP-hGluN1-1a subunit (from UniProt Q05586-1 19-938) (receptor) |

The next lines start with the substance.

| Substance | binding [1] | binding [2] | binding [3] |
| --- | --- | --- | --- |
| endogenous GluN2A subunit (from UniProt Q00959 23-1464) (receptor) | binds | binds | binds |
| endogenous GluN2B subunit (from UniProt Q00960 27-1482) (receptor) | binds | binds | binds |
| YFP-hGluN1-1a-C744Y subunit (from UniProt Q05586-1 19-938) (receptor) | – | – | binds |
